Measured values taken from the supplement of paper PMC11732987, “Enantioselective OTUD7B fragment discovery through chemoproteomics screening and high-throughput optimisation” (Communications Chemistry, 2025).
The other results are listed elsewhere or left out. The data scatter; read single values as rough.

Compound: ClCC(=O)N[C@@H]1CCCc2ccccc12
Assay: log2 mean competition ratio of IA-DTB cysteine labelling (DMSO/compound) (log2 ratio); higher = stronger cysteine engagement by compound
Settings: 50 µM; treatment time: 4 h; cell line lysate: HEK293T
Experimental: (§1)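 IA-DTB competitive cysteine chemoproteomics in HEK293T RIPA lysate. Lysates were treated with compound 29 or 30 at 50 or 200 µM for 4 h, then IA-DTB (500 µM, 1 h), trypsin-digested, NeutrAvidin-enriched and analysed by diaPASEF. Competition ratio = intensity DMSO / intensity compound (n=4 treated, n=64 DMSO); binding: mean log2 CR ≥ 1 and p ≤ 0.05 plus QC filters. Target is the cysteine site.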

| Target | log2 mean competition ratio |
| --- | --- |
| MOB3A C186 (UniProt Q96BX8) | 0.228 |
| MED12 C1651 (UniProt Q93074) | -0.0977 |
| MICU1 C83 (UniProt Q9BPX6) | -0.105 |
| MIS18BP1 C686 | -0.169 |
| MICU2 C8 (UniProt Q8IYU8) | -0.253 |
| MED8 C31 (UniProt Q96G25) | -0.0335 |
| MGA C1402 (UniProt Q8IWI9) | -0.124 |
| MDN1 C309 (UniProt Q9NU22) | 0.129 |
| MED14 C708 (UniProt O60244) | -0.187 |
| MDN1 C4192 (UniProt Q9NU22) | -0.0895 |
| MED14 C635 (UniProt O60244) | 0.149 |
| METTL2A C171 (UniProt Q96IZ6) | -0.148 |
| MLLT1 C479 (UniProt Q03111) | -0.24 |
| MIA2 C1236 (UniProt Q96PC5) | 0.197 |
| MKNK2 C225 (UniProt Q9HBH9) | -0.0185 |
| MKRN1 C186 (UniProt Q9UHC7) | -0.12 |
| MKRN1 C98 (UniProt Q9UHC7) | 0.0668 |
| MORC4 C324 | 0.178 |
| MORC4 C116 | 0.214 |

| Target | log2 mean competition ratio |
| --- | --- |
| MOCS2 C182 | 0.24 |
| MLST8 C298 (UniProt Q9BVC4) | 0.371 |
| MLXIP C8 (UniProt Q9HAP2) | -0.0189 |
| MED17 C488 (UniProt Q9NVC6) | -0.251 |
| MED29 C181 (UniProt Q9NX70) | -0.287 |
| MON1A C465 (UniProt Q86VX9) | -0.153 |
| MIDEAS C502, A0A1C7CYX1 | 0.148 |
| MIF C81 (UniProt P14174) | -0.0952 |
| MIOS C576 (UniProt Q9NXC5) | -0.137 |
| MOB3B C87 (UniProt Q86TA1) | 0.00583 |
| MOCOS C686 (UniProt Q96EN8) | -0.169 |
| MED17 C15 (UniProt Q9NVC6) | -0.16 |
| MPP2 C270 | -0.037 |
| MKNK1 C101 (UniProt Q9BUB5) | -0.0953 |
| MRM3 C309 (UniProt Q9HC36) | -0.114 |
| MED16 C267 (UniProt Q9Y2X0) | -0.035 |
| MED13 C1375 (UniProt Q9UHV7) | -0.519 |
| MRPL16 C167 (UniProt Q9NX20) | 0.355 |

Same assay, conditions: 200 µM; treatment time: 4 h; cell line lysate: HEK293T

| Target | log2 mean competition ratio |
| --- | --- |
| MOB3A C186 (UniProt Q96BX8) | -0.2 |
| MED12 C1651 (UniProt Q93074) | -0.0527 |
| MICU1 C83 (UniProt Q9BPX6) | 0.188 |
| MIS18BP1 C686 | 0.0407 |
| MICU2 C8 (UniProt Q8IYU8) | 0.121 |
| MED8 C31 (UniProt Q96G25) | -0.258 |
| MGA C1402 (UniProt Q8IWI9) | -0.063 |
| MDN1 C309 (UniProt Q9NU22) | 0.0183 |
| MED14 C708 (UniProt O60244) | -0.377 |
| MDN1 C4192 (UniProt Q9NU22) | -0.0136 |
| MED14 C635 (UniProt O60244) | 0.265 |
| METTL2A C171 (UniProt Q96IZ6) | 0.187 |
| MLLT1 C479 (UniProt Q03111) | 0.117 |
| MIA2 C1236 (UniProt Q96PC5) | 0.00197 |
| MKNK2 C225 (UniProt Q9HBH9) | 0.0227 |
| MKRN1 C186 (UniProt Q9UHC7) | 0.0888 |
| MKRN1 C98 (UniProt Q9UHC7) | -0.0148 |
| MORC4 C324 | 0.113 |
| MORC4 C116 | 0.0684 |

| Target | log2 mean competition ratio |
| --- | --- |
| MOCS2 C182 | -0.0676 |
| MLST8 C298 (UniProt Q9BVC4) | 0.196 |
| MLXIP C8 (UniProt Q9HAP2) | 0.0382 |
| MED17 C488 (UniProt Q9NVC6) | 0.0977 |
| MED29 C181 (UniProt Q9NX70) | 0.378 |
| MON1A C465 (UniProt Q86VX9) | -0.543 |
| MIDEAS C502, A0A1C7CYX1 | -0.0915 |
| MIF C81 (UniProt P14174) | 0.247 |
| MIOS C576 (UniProt Q9NXC5) | -0.19 |
| MOB3B C87 (UniProt Q86TA1) | 0.133 |
| MOCOS C686 (UniProt Q96EN8) | 0.192 |
| MED17 C15 (UniProt Q9NVC6) | -0.295 |
| MPP2 C270 | -0.196 |
| MKNK1 C101 (UniProt Q9BUB5) | -0.297 |
| MRM3 C309 (UniProt Q9HC36) | 0.358 |
| MED16 C267 (UniProt Q9Y2X0) | 0.117 |
| MED13 C1375 (UniProt Q9UHV7) | -0.145 |
| MRPL16 C167 (UniProt Q9NX20) | -0.0199 |

Compound: ClCC(=O)N[C@H]1CCCc2ccccc12
Assay: as above
Settings: 50 µM; treatment time: 4 h; cell line lysate: HEK293T
Experimental: as §1

| Target | log2 mean competition ratio |
| --- | --- |
| MOB3A C186 (UniProt Q96BX8) | -0.0105 |
| MED12 C1651 (UniProt Q93074) | -0.2 |
| MICU1 C83 (UniProt Q9BPX6) | -0.0351 |
| MIS18BP1 C686 | -0.0141 |
| MICU2 C8 (UniProt Q8IYU8) | -0.0128 |
| MED8 C31 (UniProt Q96G25) | 0.506 |
| MGA C1402 (UniProt Q8IWI9) | 0.66 |
| MDN1 C309 (UniProt Q9NU22) | 0.486 |
| MED14 C708 (UniProt O60244) | 0.534 |
| MDN1 C4192 (UniProt Q9NU22) | 0.139 |
| MED14 C635 (UniProt O60244) | 0.143 |
| METTL2A C171 (UniProt Q96IZ6) | -0.0179 |
| MLLT1 C479 (UniProt Q03111) | -0.315 |
| MIA2 C1236 (UniProt Q96PC5) | 0.0645 |
| MKNK2 C225 (UniProt Q9HBH9) | -0.752 |
| MKRN1 C186 (UniProt Q9UHC7) | -0.354 |
| MKRN1 C98 (UniProt Q9UHC7) | -0.0394 |
| MORC4 C324 | 0.134 |
| MORC4 C116 | -0.195 |

| Target | log2 mean competition ratio |
| --- | --- |
| MOCS2 C182 | 0.42 |
| MLST8 C298 (UniProt Q9BVC4) | 0.061 |
| MLXIP C8 (UniProt Q9HAP2) | -0.144 |
| MED17 C488 (UniProt Q9NVC6) | -0.145 |
| MED29 C181 (UniProt Q9NX70) | -0.334 |
| MON1A C465 (UniProt Q86VX9) | 0.101 |
| MIDEAS C502, A0A1C7CYX1 | 0.152 |
| MIF C81 (UniProt P14174) | -0.643 |
| MIOS C576 (UniProt Q9NXC5) | -0.259 |
| MOB3B C87 (UniProt Q86TA1) | -0.0721 |
| MOCOS C686 (UniProt Q96EN8) | -0.0717 |
| MED17 C15 (UniProt Q9NVC6) | 0.0965 |
| MPP2 C270 | -0.338 |
| MKNK1 C101 (UniProt Q9BUB5) | 0.419 |
| MRM3 C309 (UniProt Q9HC36) | 0.0308 |
| MED16 C267 (UniProt Q9Y2X0) | 0.0114 |
| MED13 C1375 (UniProt Q9UHV7) | -0.372 |
| MRPL16 C167 (UniProt Q9NX20) | 0.34 |
